For twelve molecules, binding results are on record in patent publication US20240327525A1 (VIB VZW, published 2024).

By UniProt entry, the sequences of proteins in these tests, tags left out. Where a name states a change or a piece, a line headed by the entry shows the natural chain unless it says otherwise.
UniProt P11717: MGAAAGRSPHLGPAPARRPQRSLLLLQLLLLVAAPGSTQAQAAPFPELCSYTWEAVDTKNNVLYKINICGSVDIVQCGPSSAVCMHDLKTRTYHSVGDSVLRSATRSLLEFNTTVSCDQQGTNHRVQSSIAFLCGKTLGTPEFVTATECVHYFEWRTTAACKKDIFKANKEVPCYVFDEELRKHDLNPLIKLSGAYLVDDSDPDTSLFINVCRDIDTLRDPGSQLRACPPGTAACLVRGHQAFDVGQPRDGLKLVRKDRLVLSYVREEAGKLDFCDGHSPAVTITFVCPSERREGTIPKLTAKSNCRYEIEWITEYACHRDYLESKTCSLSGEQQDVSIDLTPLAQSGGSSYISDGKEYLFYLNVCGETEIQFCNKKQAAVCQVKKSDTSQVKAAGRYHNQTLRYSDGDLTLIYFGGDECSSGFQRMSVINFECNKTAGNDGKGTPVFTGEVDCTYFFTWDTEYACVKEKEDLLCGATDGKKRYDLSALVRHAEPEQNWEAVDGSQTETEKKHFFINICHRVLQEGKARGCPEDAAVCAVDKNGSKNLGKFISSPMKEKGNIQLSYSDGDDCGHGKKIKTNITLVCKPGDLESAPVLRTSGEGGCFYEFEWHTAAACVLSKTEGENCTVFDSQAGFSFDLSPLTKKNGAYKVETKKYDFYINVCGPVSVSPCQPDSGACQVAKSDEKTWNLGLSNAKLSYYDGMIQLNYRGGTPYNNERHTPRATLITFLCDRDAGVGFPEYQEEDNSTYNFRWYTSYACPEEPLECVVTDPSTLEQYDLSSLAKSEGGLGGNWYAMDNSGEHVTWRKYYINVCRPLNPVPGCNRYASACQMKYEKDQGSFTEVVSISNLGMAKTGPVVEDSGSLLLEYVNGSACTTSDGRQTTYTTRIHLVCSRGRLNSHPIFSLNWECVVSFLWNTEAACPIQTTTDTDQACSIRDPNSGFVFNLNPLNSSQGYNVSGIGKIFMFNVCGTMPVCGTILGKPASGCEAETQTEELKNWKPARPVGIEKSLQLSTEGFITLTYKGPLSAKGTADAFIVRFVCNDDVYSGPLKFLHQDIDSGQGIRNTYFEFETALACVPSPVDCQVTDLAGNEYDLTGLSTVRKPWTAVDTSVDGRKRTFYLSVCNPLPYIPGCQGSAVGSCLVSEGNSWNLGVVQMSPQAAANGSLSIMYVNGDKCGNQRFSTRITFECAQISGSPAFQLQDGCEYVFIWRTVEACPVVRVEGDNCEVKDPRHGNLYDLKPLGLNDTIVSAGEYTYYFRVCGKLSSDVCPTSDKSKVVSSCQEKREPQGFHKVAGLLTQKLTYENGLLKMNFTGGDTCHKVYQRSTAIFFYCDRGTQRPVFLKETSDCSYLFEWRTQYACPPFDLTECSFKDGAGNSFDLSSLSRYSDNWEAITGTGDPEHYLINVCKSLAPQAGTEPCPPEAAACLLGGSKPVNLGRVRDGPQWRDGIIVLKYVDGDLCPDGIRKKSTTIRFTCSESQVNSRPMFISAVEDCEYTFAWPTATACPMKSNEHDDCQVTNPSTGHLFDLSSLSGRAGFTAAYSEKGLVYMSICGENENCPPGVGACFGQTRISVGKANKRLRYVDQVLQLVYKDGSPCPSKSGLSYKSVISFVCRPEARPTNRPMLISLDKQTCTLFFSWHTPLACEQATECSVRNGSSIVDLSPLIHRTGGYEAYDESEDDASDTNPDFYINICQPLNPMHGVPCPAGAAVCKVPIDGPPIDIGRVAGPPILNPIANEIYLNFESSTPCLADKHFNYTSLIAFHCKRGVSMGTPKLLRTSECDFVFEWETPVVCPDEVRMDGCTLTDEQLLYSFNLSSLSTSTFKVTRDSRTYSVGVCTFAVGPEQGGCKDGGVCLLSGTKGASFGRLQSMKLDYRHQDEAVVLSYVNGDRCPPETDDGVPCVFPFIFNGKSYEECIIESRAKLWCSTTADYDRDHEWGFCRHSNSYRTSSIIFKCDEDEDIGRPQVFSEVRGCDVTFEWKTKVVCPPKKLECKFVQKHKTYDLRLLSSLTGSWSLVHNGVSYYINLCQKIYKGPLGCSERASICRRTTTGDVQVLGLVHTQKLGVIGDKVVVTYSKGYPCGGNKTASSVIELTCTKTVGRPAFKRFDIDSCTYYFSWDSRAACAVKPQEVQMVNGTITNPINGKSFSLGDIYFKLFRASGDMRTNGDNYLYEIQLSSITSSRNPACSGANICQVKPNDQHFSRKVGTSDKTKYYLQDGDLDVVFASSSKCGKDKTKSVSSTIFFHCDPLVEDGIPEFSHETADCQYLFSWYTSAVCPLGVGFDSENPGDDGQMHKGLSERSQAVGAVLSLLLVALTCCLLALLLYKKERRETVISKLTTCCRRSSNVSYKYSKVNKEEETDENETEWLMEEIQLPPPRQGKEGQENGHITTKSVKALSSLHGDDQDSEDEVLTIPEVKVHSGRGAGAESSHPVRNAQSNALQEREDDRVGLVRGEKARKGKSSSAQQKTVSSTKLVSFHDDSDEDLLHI

Changes are numbered by the printed parent chain. No constants are given. Whether binding was seen depends on the method and setting. Some results given as binding are weak or reduced against the parent protein; the word gives no strength.

For test [1], the target named is T1, human CI-M6PR domain1-3His6 (human, UniProt P11717 41-467).
T1 construct: Recombinant, made in HEK293 cells; Biotinylated with NHS-PEG4-biotin for BLI; unlabelled in SEC-MALLS and crystallisation; also called CI-M6PR hDom1-3His6; hDom1-3His6
The test is described as follows: BLI (Octet Red96); biotinylated human domain1-3His6 on streptavidin sensors; 120 s association at pH 7.4 with VHH serially diluted 0-200 nM; 420 s dissociation at pH 7.4, 6.5, 6.0, 5.5 or 5.0 (one panel each).

In test [2] the target is T1, human CI-M6PR domain1-3His6. The test is described as follows: in-tandem competitive BLI.
Test [3] shares this target. Nature of the test: SEC-MALLS, 1:1 and 1:3 molar mixtures, complex of 62 kDa.
For test [4] the target is unchanged. The test is described as follows: in-tandem competitive BLI (Octet Red96); biotinylated human CI-M6PR domain1-3His6 on streptavidin sensors; purified VHHs at 400 nM; first association 30-90 s, second association 120-180 s.
The target is the same in test [5]. The test is described as follows: in-tandem competitive BLI (Octet Red96); biotinylated human CI-M6PR domain1-3His6 on streptavidin sensors; VHH7 and VHH8 purified at 400 nM, the other VHHs as periplasmic extracts of E. coli; first association 30-90 s, second association 120-180 s.
Test [6] has the same target. The test is described as follows: in-tandem competitive BLI, 400 nM.
Test [7] has the same target. Nature of the test: SEC-MALLS, equal concentrations.

B1: humanized variant VHH8h2 (VHH)
VHH: DVQLVESGGGLVQPGGSLRLSCAASGRTFNTYNWGWFRQAPGKEREFVAAIRWSSSKTSYADSVKGRFTISRDNSKNTVYLQMNSLRPEDTAVYYCAASIVDFTTNPSHFGSWGQGTLVTVSS
notes: Made in E. coli, IMAC purified; tag not specified
In the case of B1, the binding result in test [1] is reported as “binds”.

B2: anti-CI-M6PR VHH8 (VHH)
VHH: B1 VHH with D1Q, V5Q, P14A, A23E, S75A, V79I, R87K, L118Q
notes: Purified by IMAC, so tagged; Labelled with Alexa Fluor 488 (NHS ester) in the imaging experiments
Consider B2, for which the binding result in test [2], in test [3], in test [4], in test [1] and in test [5] was “binds” in each case.

B3: humanized variant VHH8h1 (VHH)
VHH: B1 VHH with D1E
notes: as for B1
Regarding B3, the binding entry in test [1] is given as “binds”.

B4: humanized variant VHH8h3 (VHH)
VHH: B1 VHH with P14A
notes: as for B1
Take B4: the binding entry in test [1] is “binds”.

B5: anti-CI-M6PR VHH 1H11 (VHH)
VHH: QVQLQESGGGLVQPGGSLRLSCAASGIIFSDNRMDWYRQAPGKQREWVATLASYGWKTYADSVKDRFTISRDNAKNTVNLYMNSLQPEDTAVYYCNSGQYWGQGTQVTVSS
notes: Made in E. coli (pHEN6c), IMAC purified; tag not specified
On to B5, for which the binding entry in test [6], in test [4] and in test [1] was “binds” throughout.

B6: anti-CI-M6PR VHH 1H52 (VHH)
VHH: QVQLQESGGGLVQPGGSLRLSCTASGFTWDSYVIGWFRQAPGKGREGVSCLDVDDGSIYYHDSAKGRFSISRDNAKNTVYLQMNSLKPEDTAVYYCAAVNRASMRFRRCLQVLRYDYWGQGTQVTVSS
notes: as for B5
Take B6: the binding entry in test [6], in test [1] and in test [5] was “binds” each time.

B7: humanized variant VHH7h3 (VHH)
VHH: DVQLVESGGGLVQPGGSLRLSCAASGIIFSDNRMDWYRQAPGKQREWVATLASYGWKTYADSVKGRFTISRDNTKNTVYLQMNSLRPEDTAVYYCKASSPVLNDIWGQGTLVTVSS
notes: as for B1
Regarding B7, the binding entry in test [1] is “binds”.

B8: humanized variant VHH7h2 (VHH)
VHH: B7 VHH with T74S
notes: as for B1
For B8, in test [1], the binding entry is “binds”.

B9: humanized variant VHH7h1 (VHH)
VHH: B7 VHH with D1E, T74S
notes: as for B1
As for B9, the binding entry in test [1] is “binds”.

B10: anti-CI-M6PR VHH7 (VHH)
VHH: B7 VHH with D1Q, V5Q, Q81R, R86K, L111Q
notes: as for B2
With B10, the binding entry in test [2], in test [7], in test [4], in test [1] and in test [5] was “binds” throughout.

B11: anti-CI-M6PR VHH1 (VHH)
VHH: QVQLQESGGGLVQPGGSLRLSCVASGFTFDRYWMNWLRQIPGKEIEWVSTINTGGTGTYYDDSVKGRFSISRDDAKNTLYLTMNSLKTEDTAVYYCARGATYYRGNSAIRGQGTQVTVSS
Take B11: the binding entry in test [6] and in test [4] was “binds” throughout.

B12: anti-CI-M6PR VHH5 (VHH)
VHH: QVQLQESGGGLVQAGGSLKLSCAAAGRTFSRLAMGWFRQAPGKEREFVAAISENGDSIHYSDSVKGRFAVSRDNAKNTVYLQMNSLKPEDTAIYYCAADRAAYYCSGSGCYPSRAPAAASYDYWGQGTQVTVSS
Consider B12, for which the binding result in test [6] and in test [4] was “binds” in each case.
